Data taken from patent publication US20100041694A1, “AGRICULTURAL COMPOSITION FOR CONTROLLING OR PREVENTING PLANT DISEASES CAUSED BY PLANT PATHOGENIC MICROBES” (Sumitomo Chemical Company, Limited, priority 2007, published 2010).
Some of these results come from one statement about several compounds together.

Experiments:
Assay type in all cases: in vivo
[1] = test system: Sclerotinia sclerotiorum; assay: Preventing infection by cucumber Sclerotinia rot, foliage application; settings: cucumber (Sagami-Hanjiro), flowable formulation 500 ppm foliage application, then inoculation; 18° C. high humidity 4 days
[2] = test system: Fusarium oxysporum; assay: Preventing infection by tomato wilt by soil treatment (irrigation); settings: tomato (Patio) in contaminated soil, 10 mg compound per pot by soil irrigation, 1 month
[3] = test system: Verticillium albo-atrum, V. dahliae, V. nigrescens; assay: Potato blue stem, soil irrigation treatment; settings: potato (Danshaku) in contaminated soil, 10 mg compound per pot by soil irrigation, 2 months
[4] = test system: Gibberella fujikuroi; assay: Rice bakanae disease, seed treatment; settings: contaminated unhulled rice, seed treatment 200 g compound per 100 kg seeds, 1 month
[5] = test system: Gaeumannomyces graminis; assay: Malt damping off, seed treatment; settings: contaminated malt seeds, seed treatment 200 g compound per 100 kg seeds, 1 month

| SMILES | infected areas of treated plants relative to infected areas of untreated plants [1] | blotches in treated plants [2] | growth of treated plants [2] | blotches in treated plants [3] | growth of treated plants [3] | growth of treated plants [4] | growth of treated plants [5] |
| --- | --- | --- | --- | --- | --- | --- | --- |
| O=C(NCc1cccc(I)c1)c1ccc2ncccc2c1 [Compound 156] | ≤ 10% | no blotches are found | favorably grow at a level equivalent to that of plants that grow have in noncontaminated soil | no blotches are found | favorably grow at a level equivalent to that of plants that grow in noncontaminated soil | favorably grow at a level equivalent to that of plants that have grown from noncontaminated unhulled rice | favorably grow at a level equivalent to that of plants that grow from noncontaminated seeds |
| CCCCOc1ncc(CNC(=O)c2ccc3ncccc3c2)s1 [Compound 157] | ≤ 10% | no blotches are found | favorably grow at a level equivalent to that of plants that grow have in noncontaminated soil | no blotches are found | favorably grow at a level equivalent to that of plants that grow in noncontaminated soil | favorably grow at a level equivalent to that of plants that have grown from noncontaminated unhulled rice | favorably grow at a level equivalent to that of plants that grow from noncontaminated seeds |
| O=C(NCc1cccc(OCCCCc2ccccc2)c1F)c1ccc2ncccc2c1 [Compound 158] | ≤ 10% | no blotches are found | favorably grow at a level equivalent to that of plants that grow have in noncontaminated soil | no blotches are found | favorably grow at a level equivalent to that of plants that grow in noncontaminated soil | favorably grow at a level equivalent to that of plants that have grown from noncontaminated unhulled rice | favorably grow at a level equivalent to that of plants that grow from noncontaminated seeds |
| Cc1cccc(CNC(=O)c2ccc3ncccc3c2)c1F [Compound 160] | ≤ 10% | no blotches are found | favorably grow at a level equivalent to that of plants that grow have in noncontaminated soil | no blotches are found | favorably grow at a level equivalent to that of plants that grow in noncontaminated soil | favorably grow at a level equivalent to that of plants that have grown from noncontaminated unhulled rice | favorably grow at a level equivalent to that of plants that grow from noncontaminated seeds |
| COCCOCCOc1cccc(CNC(=O)c2ccc3ncccc3c2)c1F [Compound 162] | ≤ 10% | no blotches are found | favorably grow at a level equivalent to that of plants that grow have in noncontaminated soil | no blotches are found | favorably grow at a level equivalent to that of plants that grow in noncontaminated soil | favorably grow at a level equivalent to that of plants that have grown from noncontaminated unhulled rice | favorably grow at a level equivalent to that of plants that grow from noncontaminated seeds |
| COCCCCCCOc1cccc(CNC(=O)c2ccc3ncccc3c2)c1F [Compound 165] | ≤ 10% | no blotches are found | favorably grow at a level equivalent to that of plants that grow have in noncontaminated soil | no blotches are found | favorably grow at a level equivalent to that of plants that grow in noncontaminated soil | favorably grow at a level equivalent to that of plants that have grown from noncontaminated unhulled rice | favorably grow at a level equivalent to that of plants that grow from noncontaminated seeds |
| O=C(NCc1cccc(OCC=C(Cl)Cl)c1F)c1ccc2ncccc2c1 [Compound 167] | ≤ 10% | no blotches are found | favorably grow at a level equivalent to that of plants that grow have in noncontaminated soil | no blotches are found | favorably grow at a level equivalent to that of plants that grow in noncontaminated soil | favorably grow at a level equivalent to that of plants that have grown from noncontaminated unhulled rice | favorably grow at a level equivalent to that of plants that grow from noncontaminated seeds |
| O=C(NCc1cccc(OCC=CCl)c1F)c1ccc2ncccc2c1 [Compound 168] | ≤ 10% | no blotches are found | favorably grow at a level equivalent to that of plants that grow have in noncontaminated soil | no blotches are found | favorably grow at a level equivalent to that of plants that grow in noncontaminated soil | favorably grow at a level equivalent to that of plants that have grown from noncontaminated unhulled rice | favorably grow at a level equivalent to that of plants that grow from noncontaminated seeds |
| C=C(Cl)COc1cccc(CNC(=O)c2ccc3ncccc3c2)c1F [Compound 169] | ≤ 10% | no blotches are found | favorably grow at a level equivalent to that of plants that grow have in noncontaminated soil | no blotches are found | favorably grow at a level equivalent to that of plants that grow in noncontaminated soil | favorably grow at a level equivalent to that of plants that have grown from noncontaminated unhulled rice | favorably grow at a level equivalent to that of plants that grow from noncontaminated seeds |
| O=C(NCc1ccc(Oc2ccc(F)cc2)cc1)c1ccc2ncccc2c1 [Compound 172] | ≤ 10% | no blotches are found | favorably grow at a level equivalent to that of plants that grow have in noncontaminated soil | no blotches are found | favorably grow at a level equivalent to that of plants that grow in noncontaminated soil | favorably grow at a level equivalent to that of plants that have grown from noncontaminated unhulled rice | favorably grow at a level equivalent to that of plants that grow from noncontaminated seeds |
| O=C(NCc1ccc(F)c(Oc2ccccc2)c1)c1ccc2ncccc2c1 [Compound 173] | ≤ 10% | no blotches are found | favorably grow at a level equivalent to that of plants that grow have in noncontaminated soil | no blotches are found | favorably grow at a level equivalent to that of plants that grow in noncontaminated soil | favorably grow at a level equivalent to that of plants that have grown from noncontaminated unhulled rice | favorably grow at a level equivalent to that of plants that grow from noncontaminated seeds |
| O=C(NCc1ccc(OCc2ccc(F)cc2)cc1)c1ccc2ncccc2c1 [Compound 174] | ≤ 10% | no blotches are found | favorably grow at a level equivalent to that of plants that grow have in noncontaminated soil | no blotches are found | favorably grow at a level equivalent to that of plants that grow in noncontaminated soil | favorably grow at a level equivalent to that of plants that have grown from noncontaminated unhulled rice | favorably grow at a level equivalent to that of plants that grow from noncontaminated seeds |
| O=C(NCc1cccc(Oc2ccccc2F)c1)c1ccc2ncsc2c1 [Compound 178] | ≤ 10% | no blotches are found | favorably grow at a level equivalent to that of plants that grow have in noncontaminated soil | no blotches are found | favorably grow at a level equivalent to that of plants that grow in noncontaminated soil | favorably grow at a level equivalent to that of plants that have grown from noncontaminated unhulled rice | favorably grow at a level equivalent to that of plants that grow from noncontaminated seeds |
| O=C(NCc1cccc(Oc2cccc(F)c2)c1)c1ccc2ncsc2c1 [Compound 179] | ≤ 10% | no blotches are found | favorably grow at a level equivalent to that of plants that grow have in noncontaminated soil | no blotches are found | favorably grow at a level equivalent to that of plants that grow in noncontaminated soil | favorably grow at a level equivalent to that of plants that have grown from noncontaminated unhulled rice | favorably grow at a level equivalent to that of plants that grow from noncontaminated seeds |
